Measurements reported in PubChem BioAssay AID504774 (Drosophila RNAi Screening Center, 2011).
The screen tested about 23,000 reagents; shown is a random part of those that have a named target and a result. 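Values are quantile-normalised luminescence on an arbitrary scale; higher means more cells surviving MMS.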 The numbers tell different reagents against one gene apart. A plus sign joins genes that one reagent is predicted to hit. Not all columns of the deposit are shown. No sequences are given here.

- Assay: 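Fly genes whose loss alters survival after alkylation damage to DNA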 (primary screen)
- System: Drosophila Kc167 cells
- Reagent: long dsRNA against Drosophila genes, about 0.25 µg dsRNA per well
- Timing: about 6 days: 3 days knock-down, then 3 days with or without MMS
- Conditions: methyl methanesulphonate 0.004% (w/v) for 3 days after knock-down
- Measured: 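ATP-dependent luminescence as a measure of live cells in MMS-exposed wells, quantile normalised within each plate, with replicate values also given as a mean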
- Direction: mean viability with MMS: higher = more surviving cells after MMS

Gene | reagent no. | mean viability with MMS
GluRIIC | 1 | 3.67e6
ATP6AP2 | 1 | 3.30e6
CG32284 | 1 | 3.61e6
shd | 1 | 3.49e6
CG17300 | 1 | 3.70e6
iav | 1 | 3.41e6
Rpn12 | 1 | 3.13e6
nompA | 1 | 3.66e6
Pof | 1 | 3.58e6
CG11584 | 1 | 3.63e6
CG11590 | 1 | 3.80e6
CG32606 (retired record) | 1 | 2.61e6
CG32606 (retired record) | 2 | 3.62e6
CG32606 (retired record) | 3 | 3.54e6
CG32606 (retired record) | 4 | 3.64e6
CG32606 (retired record) | 5 | 3.43e6
Ir7b | 1 | 3.28e6
CG4743 | 1 | 3.65e6
CG14106 | 1 | 3.52e6
Rrp47 | 1 | 3.63e6
Fhos | 1 | 3.54e6
Fhos | 2 | 3.65e6
Fhos | 3 | 3.64e6
Fhos | 4 | 3.71e6
CG12702 | 1 | 3.52e6
CG5746 | 1 | 3.51e6
Tim23 | 1 | 3.58e6
Septin1 | 1 | 3.62e6
Nepl17 | 1 | 3.62e6
CG14676 | 1 | 3.51e6
CG32023 | 1 | 3.59e6
Wnt6 | 1 | 3.65e6
beat-IIb | 1 | 3.31e6
beat-IIb | 2 | 3.55e6
beat-IIb | 3 | 3.46e6
sno | 1 | 3.22e6
Lamtor2 + CG30120 | 1 | 3.47e6
Lamtor2 + CG30120 | 2 | 3.54e6
Rint1 | 1 | 3.58e6
CG10991 (retired record) | 1 | 3.67e6
PGRP-SC2 | 1 | 3.53e6
CG3631 | 1 | 3.49e6
hbs | 1 | 3.66e6
CecA1 | 1 | 3.46e6
CG32073 | 1 | 3.38e6
CG32073 | 2 | 3.76e6
MICU3 | 1 | 3.55e6
MICU3 | 2 | 3.56e6
CG13455 | 1 | 3.49e6
santa-maria | 1 | 3.69e6
santa-maria | 2 | 3.57e6
Lrr47 | 1 | 3.19e6
ODA-Dnal1 | 1 | 3.60e6
CG11251 | 1 | 3.61e6
Dop2R | 1 | 3.81e6
Dop2R | 2 | 3.60e6
CG16852 | 1 | 3.64e6
CG7299 | 1 | 3.32e6
Orct | 1 | 3.51e6
CG3288 | 1 | 3.68e6
Amacr | 1 | 3.40e6
salt | 1 | 3.50e6
CG5986 | 1 | 3.50e6
Or85f | 1 | 3.57e6
CG7840 | 1 | 3.74e6
CG11248 | 1 | 3.80e6
Ran | 1 | 3.25e6
Sms | 1 | 3.42e6

6 entries from above, arranged by “mean viability with MMS”, ascending:
Gene | reagent no. | mean viability with MMS
CG14106 | 1 | 3.52e6
Fhos | 1 | 3.54e6
Rrp47 | 1 | 3.63e6
Fhos | 3 | 3.64e6
CG4743 | 1 | 3.65e6
Fhos | 2 | 3.65e6
